Values from PubChem BioAssay AID743454 (Peter MacCallum Cancer Centre, 2014).
The whole screen tested about 18,000 reagents; below is an unselected part. Of all reagents, 450 (2.5%) got an active call. 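Single biological run; no consistent viability z cut-off exists, so the class columns, not z-scores, define the calls.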 Unmarked entries are inactive.

Assay: 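Genes whose loss kills vorinostat-resistant colon cancer cells under vorinostat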 (primary screen)
Cell system: human HCT116-VR colon cancer cells, selected for vorinostat resistance
Reagents: siRNA pool against human genes, 40 nM siRNA pool
Time to read-out: vorinostat for 24 h, read-out about 72 h after transfection
Conditions: vorinostat at 2.5 µM final
Measured: 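Two measures, CellTiter-Fluor viability and luminescent caspase 3/7 activity, each as fold change against same-plate mock wells, mean of duplicates, then screen-wide robust z-score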
Scale: viability robust z-score: higher = more viable cells than screen typical; caspase robust z-score: higher = more caspase 3/7 activity than screen typical
Call rule: 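a knock-down is a hit when classed RV1 or RV2 for lowered viability, or CA1 or CA2 for caspase activation; those lethal without drug were dropped; hits were retested singly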

gene knocked down	viability hit class	caspase hit class	viability robust z-score	caspase robust z-score
TP53BP1 (GeneID 7158)	no change	no change	1.42	-0.4
GALNT9 (GeneID 50614)	no change	no change	-0.27	-0.52
C14orf93 (GeneID 60686)	no change	no change	-0.11	2.56
NUP210L (GeneID 91181)	no change	no change	0.9	0.36
RCN3 (GeneID 57333)	no change	no change	-0.76	1.84
TNS1 (GeneID 7145)	no change	no change	-0.57	-0.64
ADSS2 (GeneID 159)	no change	no change	2.25	-0.12
PBDC1 (GeneID 51260)	no change	no change	0.82	0
RPE (GeneID 6120)	no change	no change	0.07	0.16
LPAR6 (GeneID 10161)	no change	no change	0.79	-1.02
ATF6 (GeneID 22926)	no change	no change	-0.62	1.84
ZNF662 (GeneID 389114)	no change	no change	-0.54	-0.36
TCIRG1 (GeneID 10312)	no change	no change	-1.96	-1.12
EIF2AK4 (GeneID 440275)	no change	no change	-1.01	3.55
HOXA7 (GeneID 3204)	no change	no change	1.54	-0.52
ITGA11 (GeneID 22801)	no change	no change	-0.26	-0.01
OR2H1 (GeneID 26716)	no change	no change	0.54	-0.32
GRM2 (GeneID 2912)	no change	no change	0.31	0.54
DCLK1 (GeneID 9201)	no change	no change	0.6	-0.38
TMEM201 (GeneID 199953)	no change	no change	-1.05	0.62
COMTD1 (GeneID 118881)	no change	no change	-0.78	-0.65

A run of entries from the list above, for reference:
gene knocked down	viability hit class	caspase hit class	viability robust z-score	caspase robust z-score
HOXA7 (GeneID 3204)	no change	no change	1.54	-0.52
ITGA11 (GeneID 22801)	no change	no change	-0.26	-0.01
OR2H1 (GeneID 26716)	no change	no change	0.54	-0.32
GRM2 (GeneID 2912)	no change	no change	0.31	0.54

The listing continues.
gene knocked down	viability hit class	caspase hit class	viability robust z-score	caspase robust z-score
POLR2I (GeneID 5438)	RV2 (reduced viability) (active)	no change	-2.99	2.71
RAC1 (GeneID 5879)	no change	no change	0.2	-0.54
ACTB (GeneID 60)	no change	no change	-0.64	0.26
GLUL (GeneID 2752)	no change	no change	1.62	0.84
MAP3K6 (GeneID 9064)	no change	no change	-0.44	-0.04
SUMO4 (GeneID 387082)	no change	no change	0.83	2.27
CIMIP1 (GeneID 128602)	no change	no change	1.34	-0.52
TNFSF12-TNFSF13 (GeneID 407977)	no change	no change	0.65	-0.9
PCSK1 (GeneID 5122)	no change	no change	-0.5	-0.11
RPS17 (GeneID 6218)	no change	no change	-3.88	-1.6
NRP2 (GeneID 8828)	no change	no change	-0.32	2.8
CT47A4 (GeneID 728075)	no change	no change	-0.44	2.62
NME7 (GeneID 29922)	no change	no change	0.22	-0.76
ZNF394 (GeneID 84124)	no change	no change	-0.5	0.72
SIK1 (GeneID 150094)	no change	no change	0.5	0.33
TRIM73 (GeneID 375593)	no change	no change	-1.96	3.32
UBE2M (GeneID 9040)	no change (active)	CA2 (caspase activation)	-1.57	6.74
SH2B2 (GeneID 10603)	no change	no change	1.64	-1.25
